The other results are listed elsewhere or left out. Further columns of the screen follow, without active or inactive calls. The list favours compounds with an active or inconclusive main result. Potencies come from curve fits of mixed quality, noted in brackets.
Assay: qHTS Assay for Lipid Storage Modulators in Drosophila S3 Cells;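 as to cell number change: cells counted by Cell Tracker Red CMTPX staining in the red channel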
Conditions: BODIPY lipid droplet fluorescence, 18-24 h; for cell number change: measured here: cell count max response, cells fed with added oleic acid
In short: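 Drosophila S3 cells loaded with oleic acid (400 uM, as added) and compounds at several concentrations; lipid droplets imaged by 488-nm laser-scanning cytometry, 500–530 nm intensity and object ratio to cell channel. Percent activity normalized to 20 uM Triacsin C.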

[1] = measured here: lipid fluorescence (Fed channel) AC50, cells fed with added oleic acid
[2] = measured here: cell number channel AC50, cells fed with added oleic acid

| Compound | cell number change | AC50 [1] | AC50 [2] |
| --- | --- | --- | --- |
| N/C(Cc1ccc([N+](=O)[O-])cc1)=N\OC(=O)COc1cccc2ccccc12 | -2.97% | 32.6 µM [falling, partial curve, poor fit] | – |
| Cc1ccc(C(=O)O/N=C2\CCCc3ccccc32)cc1 | -39.9% | 29.1 µM [falling, single point] | 4.11 µM [falling, partial curve, poor fit] |
| CCCOC(=O)c1ccc(Oc2cn[nH]c2-c2ccc(OC)cc2O)cc1 | -81.9% | 1.16 µM [falling, full curve] | 23.1 µM [falling, partial curve] |
| COc1ccc2sc(N(CCCN(C)C)C(=O)c3ccc(S(=O)(=O)N4CCCc5ccccc54)cc3)nc2c1 | -82.8% | – | 20.6 µM [falling, partial curve] |
| COc1ccc(NC(=O)CSc2nnc(Cc3ccc(C)cc3)c(=O)n2N)cc1OC | -14.2% | – | – |
| COc1cc(NC(=O)CN2C(=O)c3ccccc3S2(=O)=O)cc(OC)c1 | 1.01% | 0.651 µM [rising, full curve, poor fit] | – |
| CC(=O)Nc1ccc(NC(=O)COC(=O)c2c(C)nn(-c3ccccc3)c2C)cc1 | 11.3% | 0.13 µM [rising, full curve, poor fit] | 0.116 µM [rising, full curve, poor fit] |
| CCCOc1ccc(N2CC(C(=O)Nc3ccccn3)CC2=O)cc1 (centres undefined) | -4.02% | – | – |
| COC(=O)C1Cc2c([nH]c3ccccc23)C(C)N1 (centres undefined) | 108% | 29.1 µM [rising, single point] | 20.6 µM [rising, single point] |
| C#CCOCCOCCOCCNc1nc(N2CCN(C(=O)[C@H]([C@@H](C)CC)n3cc([C@@H](N)CC(C)C)nn3)CC2)nc(N2CCN(C(=O)[C@H](Cc3cc4ccccc4[nH]3)n3cc([C@@H](N)C(C)CC)nn3)CC2)n1 (some centres undefined) | -23.8% | 6.51 µM [falling, single point] | 3.66 µM [falling, full curve, poor fit] |
| O=C1c2cccc3cc(Br)cc(c23)C(=O)N1Nc1ccc(Br)cc1 | 1.93% | 2.91 µM [rising, partial curve, poor fit] | – |
| CCC1CCCCN1C(=O)COc1ccc(S(=O)(=O)N2CCOCC2)cc1Cl (centres undefined) | -21.8% | 7.31 µM [falling, partial curve, poor fit] | – |
| Cc1ccc(/C=C(\NC(=O)c2ccccc2)C(=O)N2CCCC2C(=O)O)cc1 (centres undefined) | -36.5% | 0.82 µM [falling, full curve] | 0.651 µM [falling, full curve, poor fit] |
| CCCCOc1ccc(Br)cc1/C(C)=N/NC1=NCCN1 | -66.4% | 7.31 µM [falling, partial curve] | 13 µM [falling, partial curve] |
| CCn1nc(C(=O)NNC(=O)C2CSC3(C)CCC(=O)N23)c2ccccc2c1=O (centres undefined) | -49.5% | 29.1 µM [falling, single point] | 29.1 µM [falling, single point] |
| CCS(=O)(=O)Nc1cccc(-c2ccc3nnc(-c4cccnc4)n3n2)c1 | – | 5.17 µM [falling, full curve] | – |
| O=C(Nc1nccs1)C1CC(=O)N(c2ccc(Cl)cc2)C1 (centres undefined) | -0.452% | 0.13 µM [falling, full curve, poor fit] | – |

2 entries from above, bar-delimited:
Compound | cell number change | AC50 [1] | AC50 [2]
CCC1CCCCN1C(=O)COc1ccc(S(=O)(=O)N2CCOCC2)cc1Cl (centres undefined) | -21.8% | 7.31 µM [falling, partial curve, poor fit] | –
Cc1ccc(/C=C(\NC(=O)c2ccccc2)C(=O)N2CCCC2C(=O)O)cc1 (centres undefined) | -36.5% | 0.82 µM [falling, full curve] | 0.651 µM [falling, full curve, poor fit]

Remaining list, next part.

| Compound | cell number change | AC50 [1] | AC50 [2] |
| --- | --- | --- | --- |
| Cc1ccccc1C(=O)NC(=S)Nc1ccc(Cc2ccncc2)cc1 | 19.6% | 9.2 µM [rising, partial curve] | – |
| O=C(Nc1ccc(Cl)cc1)c1cc2c(cc1O)[nH]c1ccccc12 | -54.6% | 13 µM [falling, partial curve] | 8.2 µM [falling, partial curve] |
| OC(COCc1ccccc1)CN1CCN(Cc2ccc3c(c2)OCO3)CC1 (centres undefined) | -52.9% | 0.0461 µM [falling, partial curve] | – |
| Cc1ccc(S(=O)(=O)N2CC(=O)NC(=O)C2)cc1 | 0.435% | 6.51 µM [falling, partial curve, poor fit] | – |
| COc1ccc(/C=N/NC(=S)Nc2ccccc2)cc1 | -13.3% | 29.1 µM [falling, single point] | – |
| COc1ccccc1Nc1nc2ccccc2[nH]1 | – | 7.31 µM [rising, partial curve] | – |
| CCc1ccc(N2CC(C(=O)Nc3ccc4c(c3)OCO4)CC2=O)cc1 (centres undefined) | 4.54% | 0.184 µM [rising, full curve, poor fit] | – |
| CCOC(=O)CSc1nnc(-c2ccc([N+](=O)[O-])cc2)o1 | 24.8% | 6.51 µM [rising, single point] | – |
| S=C(NCc1ccco1)N/N=C/c1cccnc1 | 21.3% | 9.2 µM [rising, partial curve, poor fit] | – |
| Cc1ccc(S(=O)(=O)N(C)CC(=O)Nc2ccc3c(c2)OCO3)cc1 | 4.44% | 14.6 µM [rising, partial curve] | – |
| Clc1ccc(-c2nc(Cc3ccccc3)no2)cc1 | 56.3% | 0.00461 µM [falling, full curve, poor fit] | 29.1 µM [rising, single point] |
| C/C(CCc1ccccc1)=N\NC(=S)NCCc1ccccc1 | -2.7% | 29.1 µM [falling, single point] | – |
| CCCC(=O)NC(c1ccc(OC)c(OC)c1)c1c(O)ccc2ccccc12 (centres undefined) | -13.1% | 0.0082 µM [falling, full curve, poor fit] | – |
| COc1ccc(CNC(=O)c2cc3c(C)nc4ccccc4c3o2)c(OC)c1 | -54.3% | 0.366 µM [rising, partial curve, poor fit] | 20.6 µM [falling, single point] |
| Cc1nc(N(C)C)c2sc(=S)n(C)c2n1 | – | 6.51 µM [rising, single point] | – |
| CCCCCn1c(=O)c2ccccc2n2c(=S)[nH]nc12 | -25.1% | 29.1 µM [falling, single point] | – |
| O=C(Cc1n[nH]c(=O)[nH]c1=O)N/N=C/c1ccccc1 | -3.81% | 0.058 µM [falling, partial curve, poor fit] | – |

— PubChem BioAssay AID2685 (National Center for Advancing Translational Sciences (NCATS), 2010)
